## Small-molecule microarray binding calls

From ROBIN, a set of small-molecule microarray screens (doi:10.1002/anie.202211358).

Targets (5′ to 3′):
PreQ1: PreQ1 riboswitch RNA pseudoknot, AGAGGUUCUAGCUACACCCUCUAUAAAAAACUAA. From B. subtilis. Hit rate about 0.7% of about 24,000 compounds.
TPP: TPP riboswitch RNA three-way junction, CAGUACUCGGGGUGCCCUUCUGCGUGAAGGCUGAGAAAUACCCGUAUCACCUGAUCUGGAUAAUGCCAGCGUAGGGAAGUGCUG. Hit rate about 0.7% of about 24,000 compounds.
SAM-II: SAM-II riboswitch RNA pseudoknot, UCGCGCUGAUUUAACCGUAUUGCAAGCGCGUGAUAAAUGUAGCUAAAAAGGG. Hit rate about 1% of about 21,000 compounds.

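Compounds were printed on reactive glass slides in duplicate spots, a dye-labelled oligonucleotide was laid over them, and the fluorescence left after washing was read. For the PreQ1, TPP and SAM-II riboswitches the laboratory earlier reported (doi:10.1038/s41467-019-09493-3) 1 µM RNA, 2 h, and a rule that included a mean Z-score above 3 (spot signal-to-noise against the whole library), a score well above that on a control array, and duplicate spots agreeing (coefficient of variation under 100). The data file gives only the calls; its cut-offs may differ, and compounds hitting several targets are kept. The calls come from the array alone, and fixing a compound to the slide can hide its binding.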 “hit” means called a hit, “no hit” means screened and not called a hit. Compounds were drawn at random from those tested, without regard to their results. A target missing from an entry has no call listed here.

Calls for CNc1cc(C(=O)N(CCCO)Cc2cccc3ccccc23)ccn1 are PreQ1: no hit; TPP: no hit; SAM-II: no hit. With CCOC(=O)C1=C(C)OC(N)=C(C(=O)OC)C12C(=O)Nc1ccc(Br)cc12 (centres unmarked) the screen gave PreQ1: no hit; TPP: no hit; SAM-II: no hit. With CN(Cc1ccccc1)c1ncccc1CNC(=O)C1(N)CCC1 the screen gave PreQ1: no hit; TPP: no hit; SAM-II: no hit. With CCOC(=O)C1=C(N)OC2=C(C(=O)CCC2)C1c1cc(CN2CCOCC2)cs1 (centres unmarked) the screen gave PreQ1: no hit; TPP: no hit; SAM-II: no hit. Cc1cc(C)cc(Nc2nc3ccccc3c3nncn23)c1 was scored PreQ1: no hit; TPP: no hit; SAM-II: no hit.

With CCCCNc1ncnc2c1[nH]c1ccc(C)cc12 the screen gave PreQ1: no hit; TPP: no hit; SAM-II: no hit. For CC[C@@]1(O)CCN(C(=O)Cc2csc(C(C)=O)c2)C[C@H]1O the calls were PreQ1: no hit; TPP: no hit; SAM-II: no hit. With CCCNC(=O)c1ccc(S(N)(=O)=O)cc1 the screen gave PreQ1: no hit; TPP: no hit; SAM-II: no hit. Calls for Cc1c(CN2CC3(CCNCC3)OC2=O)cnn1C are PreQ1: no hit; TPP: no hit; SAM-II: no hit. Calls for COc1ccc(-c2nc3nc(C)cc(Nc4cc(Cl)ccc4OC)n3n2)cc1 are PreQ1: no hit; TPP: no hit.

CCC(C)NCc1nc(-c2ccc(Cl)cc2)no1 (centres unmarked) was scored PreQ1: no hit; TPP: no hit; SAM-II: no hit. With CCc1ccc(-n2nc(CO)c(C(=O)NCC(c3ccccc3)c3ccccc3)n2)cc1 the screen gave PreQ1: no hit; TPP: no hit. Calls for c1ccc(-c2nc(NC3CC3)nc(-n3ccnc3)n2)cc1 are PreQ1: no hit; TPP: no hit; SAM-II: no hit. With Cc1cccc(-c2nc3nc(C)cc(N(CCO)Cc4ccccc4)n3n2)c1 the screen gave PreQ1: no hit; TPP: no hit. With CCOc1cccc(C2c3c(-c4ccccc4O)n[nH]c3C(=O)N2CCO)c1 (centres unmarked) the screen gave PreQ1: no hit; TPP: no hit.

Nc1cccc(C(=O)CC2(O)C(=O)N(CCc3ccccc3)c3ccccc32)c1 (centres unmarked) was scored PreQ1: no hit; TPP: no hit; SAM-II: no hit. COc1ccc(C)cc1Nc1cc(C)nc2nc(C)nn12 was scored PreQ1: no hit; TPP: no hit; SAM-II: no hit. With COc1cc(Cl)c(C)cc1Nc1ncnc2c1nc1n2CCCCC1 the screen gave PreQ1: no hit; TPP: no hit. CCOC(=O)CNc1ccc(I)cc1 was scored PreQ1: no hit; TPP: no hit; SAM-II: no hit. Calls for Cc1cccc(C)c1-c1csc(CN2CCNCC2)c1 are PreQ1: no hit; TPP: no hit; SAM-II: no hit.

Calls for CNc1c(NS(=O)(=O)c2ccc(F)c(Cl)c2)c(=O)oc2ccccc12 are PreQ1: no hit; TPP: no hit; SAM-II: no hit. Cc1cc(N)n(CC(=O)N2C[C@H]3CC[C@@H]2CN(C2CCOCC2)C3)n1 was scored PreQ1: no hit; TPP: no hit; SAM-II: no hit. With OC(CN1CCN(Cc2ccccc2)CC1)Cn1c2c(c3ccccc31)CCCC2 (centres unmarked) the screen gave PreQ1: no hit; TPP: no hit; SAM-II: no hit. With COc1nccc(-c2c(-c3ccc(F)cc3)ncn2C2CCNCC2)n1 the screen gave PreQ1: no hit; TPP: no hit; SAM-II: no hit. For CCN1CCN(CCCN2CC3(CCN(c4cc(N)ncn4)CC3)OC2=O)CC1 the calls were PreQ1: no hit; TPP: no hit; SAM-II: no hit.

O=C1CC(NCc2ccc3c(c2)OCO3)C(=O)N1c1ccc(Br)cc1 (centres unmarked) was scored PreQ1: no hit; TPP: no hit; SAM-II: no hit. With COC(=O)Nc1nc2ccc(C(=O)c3cccs3)cc2[nH]1 the screen gave PreQ1: no hit; TPP: no hit; SAM-II: no hit. Calls for c1cncc(-c2nc3c4ccccc4nc(NC4CCCCC4)n3n2)c1 are PreQ1: no hit; TPP: no hit. For CCCSc1ccc(NC(=O)N2CC[C@@H](O)C2)cc1 the calls were PreQ1: no hit; TPP: no hit; SAM-II: no hit. Calls for COc1ccc(C2c3c(-c4cc(C)ccc4O)n[nH]c3C(=O)N2CCO)cc1OC (centres unmarked) are PreQ1: no hit; TPP: no hit.

COc1ccc(C2C(C#N)=C(N)Oc3cc(O)ccc32)cc1Br (centres unmarked) was scored PreQ1: no hit; TPP: no hit; SAM-II: no hit. With CCN(Cc1cccc(C(=O)Nc2c(C)cnn2C)c1)[C@H]1COC[C@@H]1O the screen gave PreQ1: no hit; TPP: no hit; SAM-II: no hit. Calls for C=CCNc1cnn(Cc2ccccc2)c(=O)c1Cl are PreQ1: no hit; TPP: no hit; SAM-II: no hit.

The first 3 entries again:

structure,PreQ1,TPP,SAM-II
CNc1cc(C(=O)N(CCCO)Cc2cccc3ccccc23)ccn1,no hit,no hit,no hit
CCOC(=O)C1=C(C)OC(N)=C(C(=O)OC)C12C(=O)Nc1ccc(Br)cc12 (centres unmarked),no hit,no hit,no hit
CN(Cc1ccccc1)c1ncccc1CNC(=O)C1(N)CCC1,no hit,no hit,no hit